Experimental data reported in the supplement of paper PMC9015667.
Some of the results follow. Single values are uncertain, as repeats are few or missing.

Key:
Assay in all cases: reduction in cell viability relative to untreated/vehicle; higher = more growth inhibition
Conditions in all cases: 200 nM; 72 h
[1] = test system: M229P (parental melanoma line)
[2] = test system: M229R (matched melanoma line resistant to BRAF inhibitors)
[3] = test system: M238P (parental melanoma line)
[4] = test system: M238R (matched melanoma line resistant to BRAF inhibitors)
[5] = test system: M249P (parental melanoma line)
[6] = test system: M249R (matched melanoma line resistant to BRAF inhibitors)
[7] = test system: UACC62P (parental melanoma line)
[8] = test system: UACC62R (matched melanoma line resistant to BRAF inhibitors)

Measured: reduction in cell viability

Cc1cccc(-c2nn(C(=S)Nc3ccccc3)cc2-c2ccnc3ccccc23)n1
9.04%: [4]
< 0%: all other assays above

COc1cc(N2CCC(N3CCN(C)CC3)CC2)ccc1Nc1ncc(Cl)c(Nc2ccccc2S(=O)(=O)C(C)C)n1
23.6%: [3]
18.9%: [8]
40.2%: [2]
18.4%: [1]
14.1%: [4]
< 0%: all other assays above

O=C(/C=C/C=C/c1ccc2c(c1)OCO2)N1CCCCC1 [Piperine]
< 0%: all assays above

CC(C)N(CC[C@H](c1ccccc1)c1cc(CO)ccc1O)C(C)C
< 0%: all assays above

CNC(=O)c1cc(COc2nnc(Nc3ccc(Cl)cc3)c3ccoc23)ccn1 [Telatinib]
< 0%: all assays above

CC(N)C12CC3CC(CC(C3)C1)C2 (configuration not stated) [Rimantadine]
< 0%: all assays above

OCCC#Cc1nc(-c2ccc(F)cc2)c(-c2ccncc2)n1CCCc1ccccc1
< 0%: all assays above

2 neighbouring records out of the list so far, quoted:
O=C(/C=C/C=C/c1ccc2c(c1)OCO2)N1CCCCC1 [Piperine]
< 0%: all assays above

CC(C)N(CC[C@H](c1ccccc1)c1cc(CO)ccc1O)C(C)C
< 0%: all assays above

Next part:

COC(=O)[C@@H]1CC2=CC(=O)CC[C@]2(C)[C@@]23O[C@@H]2C[C@@]2(C)[C@@H](CC[C@@]24CCC(=O)O4)[C@H]13 [Eplerenone]
< 0%: all assays above

CC(C)n1c(/C=C/C(O)CC(O)CC(=O)O)c(-c2ccc(F)cc2)c2ccccc21 (configuration not stated) [Fluvastatin]
5.27%: [3]
< 0%: all other assays above
